The record followed here is publication PMC9338993.

Chains of the proteins cited; added tags and fusions are not shown. Lines headed by an entry give the natural chain unless they say otherwise; changes in a name come on top.
UniProt P17936: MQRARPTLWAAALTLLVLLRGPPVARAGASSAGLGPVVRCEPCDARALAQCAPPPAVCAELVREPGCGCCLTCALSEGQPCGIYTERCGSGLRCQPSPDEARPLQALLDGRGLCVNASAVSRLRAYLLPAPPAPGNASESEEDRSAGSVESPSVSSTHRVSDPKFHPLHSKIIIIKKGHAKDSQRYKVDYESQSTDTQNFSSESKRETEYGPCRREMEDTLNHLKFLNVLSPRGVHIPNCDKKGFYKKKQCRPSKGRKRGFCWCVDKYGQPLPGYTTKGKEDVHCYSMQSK

No constants are given. Whether binding was seen depends on the method and setting. In cells and extracts the contact can be indirect. Some binding calls cover weakened binding; strength is not graded here. Where a sequence is shown, tags or fusion partners need not be part of it.

For assay [1], the target named is T1, human ALS-His (human) (UniProt P35858).
T1 sequence: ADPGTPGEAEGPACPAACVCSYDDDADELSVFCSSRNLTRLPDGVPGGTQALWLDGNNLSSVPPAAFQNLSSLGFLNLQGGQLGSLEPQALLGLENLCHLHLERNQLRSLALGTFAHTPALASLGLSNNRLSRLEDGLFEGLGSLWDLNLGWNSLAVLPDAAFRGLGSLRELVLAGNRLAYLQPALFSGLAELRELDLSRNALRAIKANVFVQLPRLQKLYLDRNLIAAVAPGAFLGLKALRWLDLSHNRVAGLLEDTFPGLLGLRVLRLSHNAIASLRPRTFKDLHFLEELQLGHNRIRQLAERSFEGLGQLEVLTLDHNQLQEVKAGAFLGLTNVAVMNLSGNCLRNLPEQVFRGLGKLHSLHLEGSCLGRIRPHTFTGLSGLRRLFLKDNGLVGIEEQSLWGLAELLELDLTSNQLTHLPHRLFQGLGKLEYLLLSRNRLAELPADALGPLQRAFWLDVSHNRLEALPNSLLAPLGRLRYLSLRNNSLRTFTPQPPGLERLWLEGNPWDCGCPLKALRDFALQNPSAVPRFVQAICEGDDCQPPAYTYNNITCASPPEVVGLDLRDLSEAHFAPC
Briefly: pull-down; three proteins co-expressed in Expi293-F (ALS-His : IGFBP3-Strep, CLD3-CBP3-Strep or hybrid-BP-Strep : IGF1 = 1:1:2); culture supernatant on Ni-NTA or Strep-Tactin resin; 20 mM Tris-HCl pH 8.0, 200 mM NaCl; SDS-PAGE.

Assay [2] addresses T1, human ALS-His (human). The assay is described as follows: pull-down; two proteins co-expressed 1:1 in Expi293-F without the third (ALS-His with IGFBP3-Strep, IGF1-Strep, CLD3-CBP3-Strep or hybrid-BP-Strep; CLD3-CBP3-Strep with IGF1-His); culture supernatant on Ni-NTA or Strep-Tactin resin; 20 mM Tris-HCl pH 8.0, 200 mM NaCl; SDS-PAGE.

As for “hybrid-BP1-Strep (IGFBP3 with its CLD replaced by the CLD of human IGFBP1) (from UniProt P17936 28-117; P08833 108-172; P17936 210-291)”, the binding result with human ALS-His (human) [1] and in the assay with human ALS-His (human) [2] was “binds” throughout.

With “hybrid-BP2-Strep (IGFBP3 with its CLD replaced by the CLD of human IGFBP2) (from UniProt P17936 28-117; P18065 135-223; P17936 210-291)”, the binding entry with human ALS-His (human) [1] and with human ALS-His (human) [2] was “binds” throughout.

As to “hybrid-BP4-Strep (IGFBP3 with its CLD replaced by the CLD of human IGFBP4) (from UniProt P17936 28-117; P22692 104-170; P17936 210-291)”, the binding entry with human ALS-His (human) [1] and with human ALS-His (human) [2] was “binds” throughout.

“hybrid-BP6-Strep (IGFBP3 with its CLD replaced by the CLD of human IGFBP6) (from UniProt P17936 28-117; P24592 108-159; P17936 210-291)”: the binding result with human ALS-His (human) [1] and with human ALS-His (human) [2] was “binds” in each case.
